Measurements taken from patent US20060041111A1.
Results are given in words; binding and its absence hold for the method and conditions named. In cells and extracts the contact can be indirect. Some entries that bind do so weakly or less than the wild type.

Chains of the proteins cited; added tags and fusions are not shown. Lines headed by an entry give the natural chain unless they say otherwise; changes in a name come on top. Residues count along the entry.
UniProt P46108, residues 132-192: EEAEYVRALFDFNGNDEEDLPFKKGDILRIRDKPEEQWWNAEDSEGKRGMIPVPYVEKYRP
UniProt Q8N1I0: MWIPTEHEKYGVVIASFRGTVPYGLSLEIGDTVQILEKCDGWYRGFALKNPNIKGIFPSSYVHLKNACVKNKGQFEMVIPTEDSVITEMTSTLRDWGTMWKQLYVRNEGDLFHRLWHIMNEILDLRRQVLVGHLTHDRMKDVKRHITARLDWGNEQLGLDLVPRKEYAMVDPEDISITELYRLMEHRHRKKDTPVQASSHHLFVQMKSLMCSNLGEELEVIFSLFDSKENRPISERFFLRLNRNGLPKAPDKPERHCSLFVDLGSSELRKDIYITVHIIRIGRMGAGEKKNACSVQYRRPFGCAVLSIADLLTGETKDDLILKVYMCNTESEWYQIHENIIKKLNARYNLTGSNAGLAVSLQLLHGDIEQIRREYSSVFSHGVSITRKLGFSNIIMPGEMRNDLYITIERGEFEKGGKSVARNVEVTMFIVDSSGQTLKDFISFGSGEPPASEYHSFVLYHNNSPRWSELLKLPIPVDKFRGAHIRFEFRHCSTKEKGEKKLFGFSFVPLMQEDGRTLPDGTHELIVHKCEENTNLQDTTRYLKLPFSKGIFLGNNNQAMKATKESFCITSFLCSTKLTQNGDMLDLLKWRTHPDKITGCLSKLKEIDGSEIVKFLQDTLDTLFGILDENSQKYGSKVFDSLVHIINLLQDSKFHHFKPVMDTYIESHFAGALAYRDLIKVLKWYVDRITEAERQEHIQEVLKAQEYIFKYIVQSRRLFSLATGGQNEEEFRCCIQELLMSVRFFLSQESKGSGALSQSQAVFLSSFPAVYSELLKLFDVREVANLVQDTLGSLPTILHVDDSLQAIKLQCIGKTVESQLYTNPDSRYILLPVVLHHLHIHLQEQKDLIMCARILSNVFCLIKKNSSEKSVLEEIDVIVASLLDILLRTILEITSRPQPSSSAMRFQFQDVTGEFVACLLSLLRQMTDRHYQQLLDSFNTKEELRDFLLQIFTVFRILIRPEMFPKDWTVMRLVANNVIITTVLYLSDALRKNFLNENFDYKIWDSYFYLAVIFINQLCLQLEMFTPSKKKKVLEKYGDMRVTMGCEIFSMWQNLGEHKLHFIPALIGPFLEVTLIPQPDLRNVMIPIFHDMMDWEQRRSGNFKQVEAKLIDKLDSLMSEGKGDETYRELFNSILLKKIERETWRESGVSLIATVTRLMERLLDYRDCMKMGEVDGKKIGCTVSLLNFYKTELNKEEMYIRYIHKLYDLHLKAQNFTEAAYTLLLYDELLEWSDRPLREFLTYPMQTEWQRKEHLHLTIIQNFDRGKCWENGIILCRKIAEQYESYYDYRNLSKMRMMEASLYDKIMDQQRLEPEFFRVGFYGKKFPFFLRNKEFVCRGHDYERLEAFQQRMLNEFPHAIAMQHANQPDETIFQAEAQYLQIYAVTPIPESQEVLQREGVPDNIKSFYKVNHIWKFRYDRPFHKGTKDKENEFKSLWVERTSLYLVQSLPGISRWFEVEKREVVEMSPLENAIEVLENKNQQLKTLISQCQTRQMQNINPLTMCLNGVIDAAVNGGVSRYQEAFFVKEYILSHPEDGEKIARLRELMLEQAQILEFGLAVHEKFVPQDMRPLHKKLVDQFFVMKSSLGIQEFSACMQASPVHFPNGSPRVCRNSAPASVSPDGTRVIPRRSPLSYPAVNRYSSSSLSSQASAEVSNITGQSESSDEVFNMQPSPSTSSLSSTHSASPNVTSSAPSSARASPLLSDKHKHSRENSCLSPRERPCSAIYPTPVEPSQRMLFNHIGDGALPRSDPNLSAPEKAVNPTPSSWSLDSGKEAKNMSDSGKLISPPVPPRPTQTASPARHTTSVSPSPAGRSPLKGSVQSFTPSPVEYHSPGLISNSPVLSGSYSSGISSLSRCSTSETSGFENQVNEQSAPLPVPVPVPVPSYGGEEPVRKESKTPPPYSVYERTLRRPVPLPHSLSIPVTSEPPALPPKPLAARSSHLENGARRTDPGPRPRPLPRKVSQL

Columns and labels:
[1] = target: GST-Crk-N terminal SH3 domain (UniProt P46108); test: summary sentence of Example 2 (GST pull-down)
[2] = target: GST-Crk-N terminal SH3 domain (UniProt P46108); test: GST pull-down, lysate in SDS containing RIPA buffer, beads carrying GST-Crk-N terminal SH3 domain

Row | Substance | binding [1] | binding [2]
1 | DOS+SSB (human DOS protein of 1966 amino acids, with Src SH3 domain binding site), epitope tagged (from UniProt Q8N1I0 1-1966) | binds | binds
2 | DOS-SSB (alternatively spliced human DOS protein of 1928 amino acids, without Src SH3 domain binding site), epitope tagged (from UniProt Q8N1I0 1-1966) | – | binds
